Test results reported in PubChem BioAssay AID504444 (National Center for Advancing Translational Sciences (NCATS), 2011).
The whole screen tested about 360,000 compounds, of which about 7,500 (2.1%) were called active. Inconclusive means that the source gave no clear call. Such entries were picked first, then a sample of the others. The call rests on the fitted dose curve; in most records, active means well fitted inhibition curve with a large enough effect; inconclusive means small, poorly fitted or top-dose-only effect, or effect the other way; inactive means flat fitted curve, though single readings scatter. A potency beside an inconclusive call is a rough fit, not a confirmed value.

Experiment: Nrf2 qHTS screen for inhibitors; further: nearly all actives have a fitted effect of over 60% in size
Settings: A549 ARE-Fluc reporter, luciferase luminescence, 18-24 h; activity change, negative = inhibition: at 46 µM (top of the series)
How it was run: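 Nrf2 activity is the BugLite luminescence, read 15 min after reagent at room temperature, following CellTiter-Fluor cytotoxicity readout (30 min, 37C). Compound titrations were applied for 18-24 h to 5000 A549 ARE_Fluc cells/well in 5% FBS OPTI-MEM.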
On the % scale 0 is the no-effect control and ±100 the full control effect; potency means the concentration at half of the fitted maximal effect.

SMILES	Potency	activity change, negative = inhibition
N/C(=N\N=C\c1ccc2c(c1)OCO2)c1nonc1N	inconclusive: 29.1 µM [falling, single point]	
NC(=O)c1nc(-c2ccc(F)c(F)c2)nc2c1[nH]c(=O)n2-c1cccc(Cl)c1		inactive: -16.4%
O=C(CN1CCCCC1)NNc1nc(-c2ccccc2)c2cc(Br)ccc2n1		inactive: 3.36%
O=S(=O)(c1ccc(Br)cc1)c1nnn2c1nc(N1CCOCC1)c1sccc12	inconclusive: 32.6 µM [falling, single point]	
Cc1ccc(C(=O)Nc2ccc3nc(SCC(=O)N4CCCc5ccccc54)sc3c2)cc1	inconclusive: 20.6 µM [falling, partial curve]	
CC(=O)Nc1ccc(SCC(=O)c2cc(C)n(C)c2C)cc1	inconclusive: 18.4 µM [activator, single point]	
COc1cc(/C=C2\SC(=S)N(CCC(=O)Nc3ccc(O)cc3)C2=O)cc(OC)c1OC	inconclusive: 1.84 µM [activator, partial curve, poor fit]	
COc1cc(N/N=C/c2ccccc2O)ncn1		inactive: 19.1%
C=C1C(=O)O[C@H]2C[C@H]1[C@@H](OC(C)=O)C/C(C)=C/CC/C(C)=C\CC[C@]2(C)O	active: 14.6 µM	
Cc1ccc(CNS(=O)(=O)c2cc3[nH]c(=O)c(=O)[nH]c3cc2C)cc1	inconclusive: 13 µM [activator, partial curve, poor fit]	
CCN(CC(=O)NCc1cccs1)C(=O)/C=C/c1cccc(Cl)c1Cl		inactive: -10.9%
Cc1cccc(OCC(=O)NCC(=O)N=Nc2c(O)[nH]c3ccc([N+](=O)[O-])cc23)c1	inconclusive: 13 µM [activator, partial curve, poor fit]	
Cc1c(C(=O)NCc2cccc(Cl)c2)sc2nc3n(c(=O)c12)CCC3	inconclusive: 29.1 µM [activator, single point]	
O=c1c2ccccc2ncn1/N=C/c1ccccc1	inconclusive: 4.11 µM [activator, full curve]	
CCOc1ccc(OCc2ccc(C(=O)N3CCc4ccccc4C3)o2)cc1	inconclusive: 32.6 µM [falling, single point]	
Cc1nc(CNS(=O)(=O)c2ccc3c(c2)OCCO3)cs1	inconclusive: 32.6 µM [falling, single point]	
NS(=O)(=O)c1ccc(N/N=C/C=C/c2ccccc2[N+](=O)[O-])cc1	inconclusive: 20.6 µM [falling, single point]	
CCN(CC(=O)Nc1c(F)cccc1F)C(=O)c1ccc(C(F)(F)F)cc1		inactive: 12.2%
Cc1ccc(-c2nn(C)c(=O)c3ccccc23)cc1CNC(=O)c1ccco1	inconclusive: 18.4 µM [falling, single point]	
CCOC(=O)Cc1csc(NC(=O)C(C)(C)CC)n1	inconclusive: 9.2 µM [activator, partial curve]	
COc1ccc2c(c1)OC[C@H]1[C@H]2N2C(=O)c3ccccc3NC(=O)[C@@]2(C)[C@H]1c1ccccc1	inconclusive: 29.1 µM [falling, single point]	
Cc1cccc(NC(=O)c2nc[nH]c2C(=O)NCCCCNC(=O)c2[nH]cnc2C(=O)Nc2cccc(C)c2)c1	inconclusive: 29.1 µM [falling, single point]	

SMILES	Potency	activity change, negative = inhibition
O=C1NCCc2c1[nH]c1ccc([N+](=O)[O-])cc21	inconclusive: 29.1 µM [falling, single point]	
C[C@@H]1CC[C@H]2C(=O)N3[C@@H](CC[C@@H](C)[C@@H]3c3ccc(Br)cc3)C(=O)N2[C@H]1c1ccc(Br)cc1	inconclusive: 25.9 µM [falling, single point]	
O=C(c1ccc(N2CCCCC2)c([N+](=O)[O-])c1)N(c1ccccn1)c1ccccn1	inconclusive: 20.6 µM [falling, single point]	
CCOc1ccccc1-c1nnc2n1N=C(c1cc(OC)cc(OC)c1)CS2	inconclusive: 23.1 µM [falling, single point]	
O=C(N1CCN(Cc2ccccc2)CC1)C(Cl)(Cl)Cl		inactive: 1.88%
Cc1ccc(C)c(C(=O)O/N=C(\N)c2ccc(Br)cc2)c1	inconclusive: 29.1 µM [falling, single point]	
O=C(Nc1cccc(C(F)(F)F)c1)c1cccc(C(=O)Nc2cccc(C(F)(F)F)c2)c1	inconclusive: 5.8 µM [falling, full curve]	
COc1cc(-c2noc(C3CCCN(C(=O)c4ccccc4)C3)n2)cc(OC)c1OC (stereo not given)		inactive: 9.59%
C=CCNC(=S)NS(=O)(=O)c1cccs1		inactive: 4.55%
CN1CCN(c2ccc(NC(=O)c3ccc(Br)o3)cc2)CC1	inconclusive: 1.46 µM [activator, partial curve]	
CCOC(=O)CCc1c(C)c(C#N)c2[nH]c3ccccc3n2c1=O	inconclusive: 18.4 µM [falling, partial curve, poor fit]	
N#Cc1ccc(-c2ccc(C3Nc4ccccc4C(=O)N3O)o2)cc1 (stereo not given)	inconclusive: 3.66 µM [falling, full curve, poor fit]	
O=[N+]([O-])c1ccc(S(=O)(=O)NCC(c2cccnc2)N2CCc3ccccc32)cc1 (stereo not given)		inactive: 2.54%
CCCS(=O)(=O)c1c(S(=O)(=O)CCC)c2c(N)cccn2c1C(=O)c1ccc(F)cc1	inconclusive: 0.651 µM [falling, partial curve, poor fit]	
CC1(C)CC(=O)C(C=NCCN2CCN(C(=O)c3ccc(F)cc3)CC2)=C(O)C1	inconclusive: 3.66 µM [activator, full curve, poor fit]	
O=C1CCc2cc(S(=O)(=O)NCCc3ccccc3)cc3c2N1CC3	inconclusive: 29.1 µM [falling, partial curve, poor fit]	
O=C(O)COc1ccc(/C=N/NC(=O)c2cn(-c3ccccc3)nc2-c2ccccc2)cc1		inactive: 2.36%
CCOC(=O)C1CCN(C(=O)Nc2ccc3c(c2)nc(C)n3C)CC1		inactive: 18.7%
COc1ccc(C(=O)Nn2cnc3scc(-c4cccs4)c3c2=O)c(O)c1	inconclusive: 4.11 µM [activator, partial curve, poor fit]	
CCc1ccccc1NC(=O)c1ccc2c(c1)nnn2C1CCCC1	inconclusive: 29.1 µM [activator, single point]	
COc1ccc(C)cc1S(=O)(=O)N(C)CC(=O)NC1CCCCCC1	inconclusive: 2.91 µM [activator, single point]	
CCOc1ccccc1NC(=O)CN1C(=O)COc2ccc(S(=O)(=O)NC3CCCC3)cc21		inactive: 6.81%

SMILES	Potency	activity change, negative = inhibition
CCN=C1Sc2nc3ccc(OCC)cc3cc2CN1CCOC	inconclusive: 20.6 µM [falling, partial curve, poor fit]	
CC(C)CCNC(=O)c1ccc2c(SCC(=O)O)c3c(nc2c1)CCCC3	inconclusive: 0.13 µM [activator, full curve, poor fit]	
Cc1cc(C)nc(SCNC(=O)c2ccc(F)cc2)n1		inactive: 3.64%
CCOc1ccccc1NC(=O)C(NCC1CCCCC1)c1ccccc1 (stereo not given)	inconclusive: 1.16 µM [falling, full curve, poor fit]	
COc1ccc2cc(CNc3ccc(C)cc3)c(=O)n(CC(=O)Nc3cccc(Cl)c3C)c2c1	inconclusive: 18.4 µM [falling, single point]	
COc1cc(Cl)c(C)cc1NC(=O)c1cnn(-c2ccc(F)cc2F)c1C1CCN(C(=O)OC(C)(C)C)CC1	inconclusive: 2.06 µM [falling, partial curve, poor fit]	
CCN(CC)S(=O)(=O)c1ccc2[nH]cc(C(=O)NCCCN3CCCCC3C)c(=O)c2c1 (stereo not given)		inactive: -2.35%
CC(C)(C)c1ccc(-c2noc(-c3ccc4c(c3)CCO4)n2)cc1	inconclusive: 29.1 µM [falling, single point]	
CCOC(=O)c1c(NC(=O)COc2ccccc2Br)sc2c1CCCCC2	inconclusive: 11.6 µM [activator, partial curve, poor fit]	
CC(C)(C)c1ccc(C(=O)N(Cc2ccc(F)cc2)Cc2ccco2)cc1	inconclusive: 29.1 µM [falling, single point]	
Cc1ccc(SC(C)c2nc(-c3ccccc3)no2)cc1 (stereo not given)	inconclusive: 18.4 µM [activator, partial curve]	
CS(=O)(=O)N(CCC#N)Cc1ccc(/C=C2\C(=O)Nc3ccccc32)o1	inconclusive: 1.84 µM [falling, partial curve]	
C/C(=N\NC(=O)c1c[nH]c2ccccc12)c1ccco1	inconclusive: 4.11 µM [activator, partial curve]	
COc1cccc2cc(-c3nnc(SCC(=O)Nc4nc(C)cs4)n3C)oc12	inconclusive: 29.1 µM [falling, single point]	
O=C(Nc1ccccc1Cl)Nc1cccc2cccnc12	inconclusive: 13 µM [activator, partial curve, poor fit]	
COc1ccc(-n2ncc3c(NCCN4CCOCC4)ncnc32)cc1	inconclusive: 20.6 µM [activator, partial curve]	
CCc1cc2c(SCC(=O)NC(=O)c3cccn3C)ncnc2s1	inconclusive: 1.03 µM [activator, full curve, poor fit]	
O=C(Cn1ncc2c(=O)oc3ccccc3c21)N1CCN(c2ccc(Cl)cc2)CC1		inactive: 8.63%
O=C(Cc1ccc(Br)cc1)NNC(=O)Nc1ccc(Cl)cc1	inconclusive: 23.1 µM [activator, partial curve, poor fit]	
COc1ccc(C(=O)NC2CCCc3c2cnn3-c2ccc(C)c(C)c2)c(OC)c1OC (stereo not given)	active: 13 µM	
CC(C)OC(=O)c1ccc2nc3ccccc3nc2c1	inconclusive: 2.59 µM [falling, full curve, poor fit]	

Arranged by molecular weight (falling): part of the list above
SMILES	Potency	activity change, negative = inhibition
COc1ccc(C(=O)NC2CCCc3c2cnn3-c2ccc(C)c(C)c2)c(OC)c1OC (stereo not given)	active: 13 µM	
O=C(Cn1ncc2c(=O)oc3ccccc3c21)N1CCN(c2ccc(Cl)cc2)CC1		inactive: 8.63%
CC(C)(C)c1ccc(-c2noc(-c3ccc4c(c3)CCO4)n2)cc1	inconclusive: 29.1 µM [falling, single point]	
